Test results taken from PubChem BioAssay (NCATS).
Inconclusive means that the source gave no clear call. Such entries were picked first, then a sample of the others. Potencies beside an inconclusive call are fits to weak or partial responses and may not hold up. The source made the active and inactive calls. The call rests on the fitted dose curve; in most records, active means well fitted curve in the direction sought with a large enough effect; inconclusive means small, poorly fitted or top-dose-only effect, or another doubt; inactive means no such curve, though single readings can be large; an effect the other way counts as inactive or inconclusive.

What was measured:
[1] = Quantitative High-Throughput drug screen in 47 multiple myeloma cell lines against the NCATS MIPE library collection: FR4_PLB cell viability assay (AID 1918924; further: nearly all actives have a fitted effect of over 35% in size)
How it was run: (§1)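 We plated 500 myeloma cells per well, pinned in MIPE 4.0 compounds, and incubated for 48 hours at 37C. ATP was then quantified with CellTiter-Glo, with DMSO and media-only wells defining 100% and 0%.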

[2] = Quantitative High-Throughput drug screen in 47 multiple myeloma cell lines against the NCATS MIPE library collection: EJM_DSMZ cell viability assay (AID 1918926; further: nearly all actives have a fitted effect of over 30% in size)
How it was run: (§2)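 Myeloma cells (500 per well) were exposed to MIPE 4.0 compounds by pin transfer and incubated 48 hours at 37C, 5% CO2. Viability was read as ATP by CellTiter-Glo luminescence, normalised to DMSO (100%) and media-only (0%) wells.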

[3] = Quantitative High-Throughput drug screen in 47 multiple myeloma cell lines against the NCATS MIPE library collection: AMO1_DSMZ cell viability assay (AID 1918927; further: nearly all actives have a fitted effect of over 30% in size)
How it was run: as §2

[4] = Quantitative High-Throughput drug screen in 47 multiple myeloma cell lines against the NCATS MIPE library collection: ARP1_JJKsccF8 cell viability assay (AID 1918928; further: nearly all actives have a fitted effect of over 40% in size)
How it was run: (§3)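 CellTiter-Glo luminescence after 48 h exposure gives viability, scaled between DMSO-only (100%) and media-only (0%) controls. Library compounds are pinned onto 500 myeloma cells per well, incubated at 37C with 5% CO2.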

[5] = Quantitative High-Throughput drug screen in 47 multiple myeloma cell lines against the NCATS MIPE library collection: Karpas620_DSMZ cell viability assay (AID 1918959); settings: Karpas620 myeloma viability, CellTiter-Glo ATP luminescence, 48 h; viability (% of DMSO): at 45.8 µM (top of the series); further: nearly all actives have a fitted effect of over 30% in size
How it was run: as §1

[6] = Quantitative High-Throughput drug screen in 47 multiple myeloma cell lines against the NCATS MIPE library collection: KMM1_JCRB cell viability assay (AID 1918960); settings: KMM1 myeloma viability, CellTiter-Glo ATP luminescence, 48 h; viability (% of DMSO): at 45.8 µM (top of the series); further: nearly all actives have a fitted effect of over 30% in size
How it was run: as §3

[7] = Quantitative High-Throughput drug screen in 47 multiple myeloma cell lines against the NCATS MIPE library collection: KHM11_PLB cell viability assay (AID 1918962); settings: KHM11 myeloma cell viability, CellTiter-Glo ATP luminescence, 48 h; viability, % of DMSO control: at 45.8 µM (top of the series); further: nearly all actives have a fitted effect of over 35% in size
How it was run: as §1

[8] = Quantitative High-Throughput drug screen in 47 multiple myeloma cell lines against the NCATS MIPE library collection: JIM3_ECACC cell viability assay (AID 1918963; further: nearly all actives have a fitted effect of over 35% in size)
How it was run: as §1

[9] = Quantitative High-Throughput drug screen in 47 multiple myeloma cell lines against the NCATS MIPE library collection: INA6_PLB cell viability assay (AID 1918965; further: nearly all actives have a fitted effect of over 55% in size); settings: INA6 myeloma viability, CellTiter-Glo ATP luminescence, 48 h; viability (% of control): at 45.8 µM (top of the series)
How it was run: (§4)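 Viability readout: CellTiter-Glo luminescence following 5 min room-temperature incubation with reagent. Prior exposure: 48 h, 37C, humidified 5% CO2, 500 cells per well.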

[10] = Quantitative High-Throughput drug screen in 47 multiple myeloma cell lines against the NCATS MIPE library collection: H1112_PLB cell viability assay (AID 1918967; further: nearly all actives have a fitted effect of over 30% in size)
How it was run: as §2

[11] = Quantitative High-Throughput drug screen in 47 multiple myeloma cell lines against the NCATS MIPE library collection: KMS27_JCRB cell viability assay (AID 1918970); settings: KMS27 myeloma cells, CellTiter-Glo ATP viability, 48 h; viability (% of DMSO): at 45.8 µM (top of the series); further: nearly all actives have a fitted effect of over 30% in size
How it was run: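 Viability inhibition screen, 48 h compound exposure, luminescent ATP read-out.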

[12] = Quantitative High-Throughput drug screen in 47 multiple myeloma cell lines against the NCATS MIPE library collection: JIM1_ECACC cell viability assay (AID 1918964); settings: JIM1 myeloma viability, CellTiter-Glo ATP luminescence, 48 h; viability (% of DMSO): at 45.8 µM (top of the series)
How it was run: as §2

[13] = Quantitative High-Throughput drug screen in 47 multiple myeloma cell lines against the NCATS MIPE library collection: JJN3_DSMZ cell viability assay (AID 1918966; further: nearly all actives have a fitted effect of over 50% in size); settings: JJN3 myeloma cells viability, CellTiter-Glo ATP, 48 h; viability, % of DMSO: at 45.8 µM (top of the series)
How it was run: as §2

[14] = Quantitative High-Throughput drug screen in 47 multiple myeloma cell lines against the NCATS MIPE library collection: Karpas25_ECACC cell viability assay (AID 1918968; further: nearly all actives have a fitted effect of over 35% in size); settings: Karpas25 myeloma viability, CellTiter-Glo ATP, 48 h; viability (% of control): at 45.8 µM (top of the series)
How it was run: as §2

[15] = Quantitative High-Throughput drug screen in 47 multiple myeloma cell lines against the NCATS MIPE library collection: ARD_JJKsccE7 cell viability assay (AID 1918929); settings: ARD myeloma cell line viability, CellTiter-Glo, 48 h; viability: at 45.8 µM (top of the series)
How it was run: as §2

[16] = Quantitative High-Throughput drug screen in 47 multiple myeloma cell lines against the NCATS MIPE library collection: Karpas417_ECACC cell viability assay (AID 1918961); settings: Karpas417 myeloma viability, CellTiter-Glo ATP luminescence, 48 h; viability (% of DMSO): at 45.8 µM (top of the series)
How it was run: as §4
Potency means the concentration at half of the fitted maximal effect.

Row | SMILES | Potency [1] | Potency [2] | Potency [3] | Potency [4] | Potency [5] | Potency [6] | Potency [7] | Potency [8] | Potency [9] | Potency [10] | Potency [11] | Potency [12] | Potency [13] | Potency [14] | Potency [15] | Potency [16] | viability (% of control) [9] | viability (% of control) [14] | viability (% of DMSO) [16]
1 | C[C@](N)(Cc1ccc(O)c(O)c1)C(=O)O | inactive | inconclusive: 18.7 µM [cytotoxic, partial curve] | inconclusive: 4.18 µM [cytotoxic, partial curve, poor fit] | inconclusive: 11.8 µM [cytotoxic, full curve] | inactive | inconclusive: 0.105 µM [rising, full curve, poor fit] | inconclusive: 37.2 µM [cytotoxic, single point] | inconclusive: 20.9 µM [cytotoxic, single point] | inconclusive: 37.2 µM [cytotoxic, partial curve, poor fit] | inconclusive: 23.5 µM [cytotoxic, partial curve] | inactive | – | – | – | – | – | – | – | –
2 | CNS(=O)(=O)CCc1ccc2[nH]cc(C3CCN(C)CC3)c2c1 | active: 16.6 µM | inconclusive: 6.62 µM [cytotoxic, partial curve] | – | inconclusive: 5.26 µM [cytotoxic, full curve, poor fit] | inactive | – | active: 1.18 µM | – | – | inconclusive: 0.935 µM [cytotoxic, full curve] | inconclusive: 7.43 µM [cytotoxic, full curve] | inconclusive: 11.8 µM [cytotoxic, partial curve, poor fit] | active: 0.0418 µM | active: 0.935 µM | – | – | – | – | –
3 | O=c1c(-c2ccc(O)cc2)coc2cc(OC3O[C@H](CO)[C@H](O)[C@H](O)[C@H]3O)cc(O)c12 (some centres undefined) | inconclusive: 0.0083 µM [rising, full curve, poor fit] | inconclusive: 1.18 µM [cytotoxic, full curve] | – | active: 18.7 µM | inconclusive: 0.0093 µM [cytotoxic, full curve, poor fit] | inconclusive: 26.4 µM [cytotoxic, single point] | inconclusive: 1.32 µM [cytotoxic, full curve, poor fit] | – | – | inconclusive: 1.48 µM [cytotoxic, full curve] | – | – | inconclusive: 5.26 µM [cytotoxic, partial curve, poor fit] | – | inconclusive: 0.0015 µM [cytotoxic, full curve, poor fit] | inconclusive: 1.87 µM [cytotoxic, full curve, poor fit] | – | – | –
4 | COCCn1c2c([n+](Cc3cnccn3)c1C)C(=O)c1ccccc1C2=O | active: 0.0105 µM | active: 0.0074 µM | – | active: 0.0118 µM | inconclusive: 0.0209 µM [cytotoxic, full curve, poor fit] | inconclusive: 0.0066 µM [cytotoxic, full curve, poor fit] | – | active: 0.0264 µM | – | – | inconclusive: 0.003 µM [cytotoxic, full curve, poor fit] | inconclusive: 0.372 µM [cytotoxic, full curve, poor fit] | – | – | inconclusive: 0.0526 µM [cytotoxic, full curve, poor fit] | inconclusive: 0.0296 µM [cytotoxic, full curve, poor fit] | inconclusive: 3.56% [cytotoxic] | inconclusive: 4.35% [cytotoxic] | –
5 | O=C(Nc1ccccc1)Nc1ccc(-c2ccc(C(=O)[C@H]3CCC[C@H]3C(=O)O)cc2)cc1 | inactive | inconclusive: 16.6 µM [cytotoxic, partial curve] | inconclusive: 11.8 µM [cytotoxic, partial curve, poor fit] | – | – | – | inactive | – | inactive | inactive | active: 0.372 µM | inconclusive: 18.7 µM [cytotoxic, partial curve, poor fit] | active: 3.72 µM | – | inconclusive: 37.2 µM [cytotoxic, single point] | inconclusive: 1.05 µM [cytotoxic, full curve, poor fit] | – | – | –
6 | NNc1nncc2ccccc12 | inactive | inconclusive: 11.8 µM [rising, single point] | inconclusive: 11.8 µM [rising, partial curve] | – | inactive | – | inconclusive: 0.833 µM [rising, full curve, poor fit] | – | inconclusive: 0.372 µM [rising, full curve, poor fit] | inactive | – | inconclusive: 10.5 µM [cytotoxic, full curve, poor fit] | inconclusive: 2.96 µM [rising, partial curve, poor fit] | inconclusive: 33.2 µM [cytotoxic, single point] | inactive | inconclusive: 0.0019 µM [cytotoxic, full curve, poor fit] | – | – | –
7 | CC(C)c1ccc2c(c1)c(SC(C)(C)C)c(CC(C)(C)C(=O)O)n2Cc1ccc(Cl)cc1 | inconclusive: 33.2 µM [cytotoxic, partial curve, poor fit] | inconclusive: 18.7 µM [cytotoxic, partial curve, poor fit] | – | inconclusive: 23.5 µM [cytotoxic, partial curve] | inactive | – | inactive | inconclusive: 8.33 µM [cytotoxic, single point] | inconclusive: 3.32 µM [cytotoxic, full curve, poor fit] | inconclusive: 26.4 µM [cytotoxic, single point] | – | inactive | – | – | inconclusive: 0.003 µM [cytotoxic, full curve, poor fit] | – | – | – | inconclusive: 128%
8 | CC=CC[C@@H](C)C(=O)[C@H]1C(=O)N[C@@H](C(C)C)C(=O)N(C)CC(=O)N(C)[C@@H](CC(C)C)C(=O)N[C@@H](C(C)C)C(=O)N(C)[C@@H](CC(C)C)C(=O)N[C@@H](C)C(=O)N[C@H](C)C(=O)N(C)[C@@H](CC(C)C)C(=O)N(C)[C@@H](CC(C)C)C(=O)N(C)[C@@H](C(C)C)C(=O)N1C | active: 23.5 µM | inactive | inconclusive: 5.26 µM [cytotoxic, partial curve, poor fit] | – | inconclusive: 1.87 µM [cytotoxic, partial curve, poor fit] | inconclusive: 8.33 µM [cytotoxic, single point] | inconclusive: 20.9 µM [cytotoxic, partial curve, poor fit] | – | inconclusive: 29.6 µM [cytotoxic, single point] | inconclusive: 23.5 µM [cytotoxic, partial curve] | active: 4.69 µM | inconclusive: 0.003 µM [cytotoxic, full curve, poor fit] | inconclusive: 1.32 µM [cytotoxic, full curve, poor fit] | inconclusive: 26.4 µM [cytotoxic, single point] | inconclusive: 7.43 µM [cytotoxic, single point] | inconclusive: 37.2 µM [rising, partial curve, poor fit] | – | – | –
9 | NC(CO)(CO)CCc1ccc(Sc2cccc(OCc3ccccc3)c2)cc1Cl | inconclusive: 37.2 µM [cytotoxic, single point] | inconclusive: 33.2 µM [cytotoxic, single point] | – | – | active: 16.6 µM | – | active: 7.43 µM | – | – | – | active: 11.8 µM | – | inconclusive: 33.2 µM [cytotoxic, single point] | – | inconclusive: 37.2 µM [cytotoxic, single point] | inconclusive: 14.8 µM [cytotoxic, partial curve, poor fit] | – | – | –

Two compounds picked at random from the list so far, as already listed:
Row | SMILES | Potency [1] | Potency [2] | Potency [3] | Potency [4] | Potency [5] | Potency [6] | Potency [7] | Potency [8] | Potency [9] | Potency [10] | Potency [11] | Potency [12] | Potency [13] | Potency [14] | Potency [15] | Potency [16] | viability (% of control) [9] | viability (% of control) [14] | viability (% of DMSO) [16]
8 | CC=CC[C@@H](C)C(=O)[C@H]1C(=O)N[C@@H](C(C)C)C(=O)N(C)CC(=O)N(C)[C@@H](CC(C)C)C(=O)N[C@@H](C(C)C)C(=O)N(C)[C@@H](CC(C)C)C(=O)N[C@@H](C)C(=O)N[C@H](C)C(=O)N(C)[C@@H](CC(C)C)C(=O)N(C)[C@@H](CC(C)C)C(=O)N(C)[C@@H](C(C)C)C(=O)N1C | active: 23.5 µM | inactive | inconclusive: 5.26 µM [cytotoxic, partial curve, poor fit] | – | inconclusive: 1.87 µM [cytotoxic, partial curve, poor fit] | inconclusive: 8.33 µM [cytotoxic, single point] | inconclusive: 20.9 µM [cytotoxic, partial curve, poor fit] | – | inconclusive: 29.6 µM [cytotoxic, single point] | inconclusive: 23.5 µM [cytotoxic, partial curve] | active: 4.69 µM | inconclusive: 0.003 µM [cytotoxic, full curve, poor fit] | inconclusive: 1.32 µM [cytotoxic, full curve, poor fit] | inconclusive: 26.4 µM [cytotoxic, single point] | inconclusive: 7.43 µM [cytotoxic, single point] | inconclusive: 37.2 µM [rising, partial curve, poor fit] | – | – | –
1 | C[C@](N)(Cc1ccc(O)c(O)c1)C(=O)O | inactive | inconclusive: 18.7 µM [cytotoxic, partial curve] | inconclusive: 4.18 µM [cytotoxic, partial curve, poor fit] | inconclusive: 11.8 µM [cytotoxic, full curve] | inactive | inconclusive: 0.105 µM [rising, full curve, poor fit] | inconclusive: 37.2 µM [cytotoxic, single point] | inconclusive: 20.9 µM [cytotoxic, single point] | inconclusive: 37.2 µM [cytotoxic, partial curve, poor fit] | inconclusive: 23.5 µM [cytotoxic, partial curve] | inactive | – | – | – | – | – | – | – | –
